Laboratory results as given in the supplement of paper PMC10032668.
This is one part of the list. Only hits are listed; about a third recur on repeated control peptides.

By UniProt entry, the sequences of proteins in these tests, tags left out.
IK, Q13123, UniProt Q13123, whole entry: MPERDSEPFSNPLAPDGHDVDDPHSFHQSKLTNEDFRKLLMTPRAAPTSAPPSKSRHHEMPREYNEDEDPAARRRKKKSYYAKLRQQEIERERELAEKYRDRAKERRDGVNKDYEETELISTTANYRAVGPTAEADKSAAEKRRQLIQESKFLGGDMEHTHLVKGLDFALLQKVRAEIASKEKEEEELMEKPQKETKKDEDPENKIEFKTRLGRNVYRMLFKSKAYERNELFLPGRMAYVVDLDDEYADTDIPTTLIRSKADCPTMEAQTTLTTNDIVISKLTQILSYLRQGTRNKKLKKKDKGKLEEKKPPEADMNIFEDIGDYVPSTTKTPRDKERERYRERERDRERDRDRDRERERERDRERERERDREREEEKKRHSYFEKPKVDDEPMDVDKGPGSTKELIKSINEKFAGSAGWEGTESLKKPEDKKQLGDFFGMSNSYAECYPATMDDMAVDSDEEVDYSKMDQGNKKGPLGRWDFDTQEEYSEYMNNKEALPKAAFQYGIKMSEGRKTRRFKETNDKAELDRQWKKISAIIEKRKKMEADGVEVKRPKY
RANBP2, P49792, UniProt P49792, whole entry: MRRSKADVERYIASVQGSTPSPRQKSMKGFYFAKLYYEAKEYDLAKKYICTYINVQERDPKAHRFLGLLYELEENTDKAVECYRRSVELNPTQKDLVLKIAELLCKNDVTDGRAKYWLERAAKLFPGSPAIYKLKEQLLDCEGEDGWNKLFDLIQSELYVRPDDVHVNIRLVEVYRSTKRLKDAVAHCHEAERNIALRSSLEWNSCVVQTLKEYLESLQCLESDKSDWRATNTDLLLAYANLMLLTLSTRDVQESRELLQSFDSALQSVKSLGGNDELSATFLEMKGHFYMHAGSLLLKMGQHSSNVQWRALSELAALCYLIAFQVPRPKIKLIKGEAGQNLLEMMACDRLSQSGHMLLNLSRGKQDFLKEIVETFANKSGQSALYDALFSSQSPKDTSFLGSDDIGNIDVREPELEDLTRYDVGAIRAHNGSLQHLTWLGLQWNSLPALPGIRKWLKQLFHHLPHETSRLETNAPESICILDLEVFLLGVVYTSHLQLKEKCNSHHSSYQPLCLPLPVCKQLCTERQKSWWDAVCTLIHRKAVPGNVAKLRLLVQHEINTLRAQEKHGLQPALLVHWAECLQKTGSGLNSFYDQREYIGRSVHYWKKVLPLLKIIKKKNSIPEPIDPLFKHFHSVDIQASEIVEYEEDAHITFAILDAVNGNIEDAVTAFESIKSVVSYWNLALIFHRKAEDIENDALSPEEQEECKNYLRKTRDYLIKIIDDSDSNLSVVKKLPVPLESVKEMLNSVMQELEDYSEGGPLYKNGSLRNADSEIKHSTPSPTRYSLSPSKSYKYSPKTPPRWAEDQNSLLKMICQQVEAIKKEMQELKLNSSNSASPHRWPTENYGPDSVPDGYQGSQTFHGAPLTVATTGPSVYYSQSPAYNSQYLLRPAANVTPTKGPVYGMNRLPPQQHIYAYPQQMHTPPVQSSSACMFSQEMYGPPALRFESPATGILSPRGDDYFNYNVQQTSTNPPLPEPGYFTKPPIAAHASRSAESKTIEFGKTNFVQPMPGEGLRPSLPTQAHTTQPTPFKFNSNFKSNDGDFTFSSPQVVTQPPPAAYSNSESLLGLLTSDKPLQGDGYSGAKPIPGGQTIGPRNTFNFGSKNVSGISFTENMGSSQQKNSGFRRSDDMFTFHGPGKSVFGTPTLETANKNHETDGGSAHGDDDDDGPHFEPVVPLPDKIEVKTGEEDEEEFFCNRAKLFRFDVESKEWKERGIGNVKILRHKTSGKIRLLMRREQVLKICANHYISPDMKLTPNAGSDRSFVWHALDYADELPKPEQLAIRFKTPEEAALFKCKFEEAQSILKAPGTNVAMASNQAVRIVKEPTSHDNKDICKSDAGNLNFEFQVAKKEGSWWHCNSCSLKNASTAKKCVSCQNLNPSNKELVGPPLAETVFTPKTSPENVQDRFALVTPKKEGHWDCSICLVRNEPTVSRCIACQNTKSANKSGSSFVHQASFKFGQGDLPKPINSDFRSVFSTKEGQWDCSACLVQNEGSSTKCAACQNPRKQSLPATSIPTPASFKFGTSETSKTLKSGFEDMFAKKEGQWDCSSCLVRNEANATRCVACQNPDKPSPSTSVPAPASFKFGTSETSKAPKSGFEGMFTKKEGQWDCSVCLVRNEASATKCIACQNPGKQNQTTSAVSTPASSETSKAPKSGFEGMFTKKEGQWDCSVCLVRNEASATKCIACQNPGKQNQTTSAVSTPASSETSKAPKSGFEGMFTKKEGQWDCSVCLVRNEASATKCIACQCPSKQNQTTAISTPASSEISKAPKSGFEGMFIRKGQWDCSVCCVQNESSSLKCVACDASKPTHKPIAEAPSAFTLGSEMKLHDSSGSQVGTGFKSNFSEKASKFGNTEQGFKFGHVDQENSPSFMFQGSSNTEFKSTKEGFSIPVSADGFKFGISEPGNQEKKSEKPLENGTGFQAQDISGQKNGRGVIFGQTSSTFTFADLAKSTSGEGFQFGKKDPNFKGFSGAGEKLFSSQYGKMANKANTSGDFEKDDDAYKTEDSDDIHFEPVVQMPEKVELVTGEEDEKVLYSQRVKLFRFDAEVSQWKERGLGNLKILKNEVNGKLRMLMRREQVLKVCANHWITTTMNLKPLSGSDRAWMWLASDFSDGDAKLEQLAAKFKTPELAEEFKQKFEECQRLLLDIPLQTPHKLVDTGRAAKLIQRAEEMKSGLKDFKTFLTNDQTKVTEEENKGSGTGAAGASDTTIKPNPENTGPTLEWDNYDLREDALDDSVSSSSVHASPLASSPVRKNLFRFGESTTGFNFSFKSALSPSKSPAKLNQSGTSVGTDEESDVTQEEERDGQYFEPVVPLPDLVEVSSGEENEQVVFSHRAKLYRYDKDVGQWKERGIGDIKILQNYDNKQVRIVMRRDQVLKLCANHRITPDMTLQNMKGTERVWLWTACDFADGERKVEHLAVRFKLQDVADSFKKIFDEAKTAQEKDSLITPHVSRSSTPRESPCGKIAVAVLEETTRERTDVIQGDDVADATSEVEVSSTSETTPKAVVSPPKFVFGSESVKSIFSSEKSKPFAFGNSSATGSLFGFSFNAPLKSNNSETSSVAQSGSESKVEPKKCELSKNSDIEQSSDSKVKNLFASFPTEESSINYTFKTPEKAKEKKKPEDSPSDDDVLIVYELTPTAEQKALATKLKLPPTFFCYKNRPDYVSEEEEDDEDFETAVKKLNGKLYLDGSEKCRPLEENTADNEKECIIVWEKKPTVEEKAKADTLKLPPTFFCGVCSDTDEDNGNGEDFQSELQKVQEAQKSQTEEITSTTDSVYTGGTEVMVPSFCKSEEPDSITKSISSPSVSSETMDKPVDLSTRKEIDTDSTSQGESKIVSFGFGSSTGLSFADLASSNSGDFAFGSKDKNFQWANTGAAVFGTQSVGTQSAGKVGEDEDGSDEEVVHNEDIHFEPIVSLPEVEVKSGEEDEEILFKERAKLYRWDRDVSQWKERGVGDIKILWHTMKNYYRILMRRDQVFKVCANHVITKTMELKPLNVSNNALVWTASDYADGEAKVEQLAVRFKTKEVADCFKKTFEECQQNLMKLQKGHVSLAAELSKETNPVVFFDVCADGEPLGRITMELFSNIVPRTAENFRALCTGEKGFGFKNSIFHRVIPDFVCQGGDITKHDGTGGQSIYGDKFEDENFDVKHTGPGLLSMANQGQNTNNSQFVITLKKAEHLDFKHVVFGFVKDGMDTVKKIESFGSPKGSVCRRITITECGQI
SNRPG, P62308, UniProt P62308, whole entry: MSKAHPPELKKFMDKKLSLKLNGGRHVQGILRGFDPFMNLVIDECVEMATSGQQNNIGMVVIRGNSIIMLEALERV

How the values were obtained:
Test in all cases: PRISMA enrichment of interactor (LFQ) in peptide spot vs all other peptide spots (log2 fold change); higher = stronger / more specific binding of the interactor to the peptide
[1] = target: ABCF3, Q9NUQ8
Method: (§1)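 PRISMA: 15-aa overlapping tiles (offset 8 aa) of 60 microproteins, plus SOS1/GLUT1 control peptides, were spot-synthesized on cellulose membranes in triplicate. Membranes were incubated with benzonase-treated HEK293T lysate, and bound proteins were identified by LC-MS/MS with LFQ. Enrichment is the log2 fold change of each protein in one spot versus all other spots. Only interactors passing the significance cutoff are listed.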

[2] = target: ACO2, Q99798
Method: as §1

[3] = target: API5, Q9BZZ5
Method: as §1

[4] = target: ARCN1, P48444
Method: as §1

[5] = target: CPSF1, Q10570
Method: as §1

[6] = target: CWC22, Q9HCG8
Method: as §1

[7] = target: DTYMK, P23919
Method: as §1

[8] = target: EARS2, Q5JPH6
Method: as §1

[9] = target: FBXO21, O94952
Method: as §1

[10] = target: HMGCL, P35914
Method: as §1

[11] = target: IK, Q13123
Method: as §1

[12] = target: KNOP1, Q1ED39
Method: as §1

[13] = target: MGA, Q8IWI9
Method: as §1

[14] = target: MUC19, Q7Z5P9
Method: as §1

[15] = target: PDIA5, Q14554
Method: as §1

[16] = target: PPP6R3, Q5H9R7
Method: as §1

[17] = target: RANBP2, P49792
Method: as §1

[18] = target: SNRPG, P62308
Method: as §1

[19] = target: STMN1, P16949
Method: as §1

[20] = target: YWHAZ, P63104
Method: as §1

[21] = target: ABCF1, Q8NE71
Method: as §1

[22] = target: ABHD14B, Q96IU4
Method: as §1

[23] = target: ALYREF, Q86V81
Method: as §1

[24] = target: CHP1, Q99653
Method: as §1

[25] = target: COA7, Q96BR5
Method: as §1

[26] = target: CSTF1, Q05048
Method: as §1

[27] = target: DHCR24, Q15392
Method: as §1

[28] = target: DR1, Q01658
Method: as §1

[29] = target: DSTN, P60981
Method: as §1

[30] = target: IDH3B, O43837
Method: as §1

[31] = target: NECAP2, Q9NVZ3
Method: as §1

[32] = target: PSMD4, P55036
Method: as §1

[33] = target: SNAP47, Q5SQN1
Method: as §1

[34] = target: ZDBF2, Q9HCK1
Method: as §1

GRTEFWPHCEERQKP [RP11-644F5.11]
PRISMA enrichment of interactor (log2) [1]: 8.91 | PRISMA enrichment of interactor (log2) [2]: 4.7 | PRISMA enrichment of interactor (log2) [3]: 4.87 | PRISMA enrichment of interactor (log2) [4]: 4.38 | PRISMA enrichment of interactor (log2) [5]: 6.87 | PRISMA enrichment of interactor (log2) [6]: 5.17 | PRISMA enrichment of interactor (log2) [7]: 5.77 | PRISMA enrichment of interactor (log2) [8]: 6.32 | PRISMA enrichment of interactor (log2) [9]: 3.85 | PRISMA enrichment of interactor (log2) [10]: 5.33 | PRISMA enrichment of interactor (log2) [11]: 6.98 | PRISMA enrichment of interactor (log2) [12]: 4.88 | PRISMA enrichment of interactor (log2) [13]: 3.85 | PRISMA enrichment of interactor (log2) [14]: 7.49 | PRISMA enrichment of interactor (log2) [15]: 6.14 | PRISMA enrichment of interactor (log2) [16]: 6.04 | PRISMA enrichment of interactor (log2) [17]: 5.39 | PRISMA enrichment of interactor (log2) [18]: 7.28 | PRISMA enrichment of interactor (log2) [19]: 5.22 | PRISMA enrichment of interactor (log2) [20]: 4.8

MSSYLTSEPRWAGNR [TBX5-AS1]
PRISMA enrichment of interactor (log2) [21]: 4.7 | PRISMA enrichment of interactor (log2) [22]: 6.91 | PRISMA enrichment of interactor (log2) [23]: 6.54 | PRISMA enrichment of interactor (log2) [24]: 5.71 | PRISMA enrichment of interactor (log2) [25]: 5.63 | PRISMA enrichment of interactor (log2) [26]: 4.3 | PRISMA enrichment of interactor (log2) [27]: 6.24 | PRISMA enrichment of interactor (log2) [28]: 4.36 | PRISMA enrichment of interactor (log2) [29]: 8.1 | PRISMA enrichment of interactor (log2) [30]: 6.53 | PRISMA enrichment of interactor (log2) [31]: 4.92 | PRISMA enrichment of interactor (log2) [32]: 5.4 | PRISMA enrichment of interactor (log2) [33]: 6.44 | PRISMA enrichment of interactor (log2) [34]: 4.14
